## Percent effect of library compounds

Data taken from ChEMBL document CHEMBL3988442, “University of Dundee, Small-Polar-MMV Screening Library” (2021).

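Cell assay of Leishmania donovani living inside macrophages; the read-out is not stated. Compounds at 30 µM. Higher reads as stronger inhibition (inferred: compounds with an IC50 in retests scored well above the rest). About 69,000 compounds were tested under these conditions; 1.5% (about 1,000) showed 50% or more at least once.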

The filed quantity is “Percent Effect” (%).
The record does not define 0% and 100%; most values in the screen are far below 50% and negative numbers occur (in some assays of this library far below -100).
Compounds were drawn at random from those tested, without regard to their results.
Two or more numbers in one place are separate tests of the same structure; such repeats can differ widely.

Result for c1ccc2c(N3CCCCC3)cnnc2c1 was 14.11%.
Result for CC(Cn1cccn1)NC(=O)NCc1ccccn1 (configuration not stated) was -21.26%.
Result for COCCCN(CCOC)C(=O)Nc1ccccc1Br was 20.88%.
Result for NCCn1nc(C2CCN(C(=O)Cc3ccccc3)C2)c2nccnc21 (configuration not stated) was -4.067%.
Result for CC(C)Cc1cc(C(=O)NCC2CCN(c3ccccc3F)C2)on1 (configuration not stated) was 6.007%.
Result for O=C(O)c1ccccc1-c1ccc(CN2CCCC(O)C2)cc1 (configuration not stated) was 5.13% and -7.402%.
Result for N#CCCN(CC1CCOC1)Cn1ccc(-c2ccccc2)n1 (configuration not stated) was 16.63%.
Result for COc1cccc(-n2cc(-c3ccnc(N[C@H](CO)C(C)C)n3)cn2)c1 was 5.009%.
Result for O=C(O)C(F)(F)F.[H][C@@]12CCN(Cc3ccc(C)s3)C[C@@]1([H])[C@H](C(=O)NCC1CC1)CCO2 was -21.57%.
Result for Cc1nc(CC(=O)N2CCC(Nc3cccnn3)CC2)cs1 was -4.216%.
Result for Fc1cccc(-n2nc(C3CC3)nc2CCn2cnnn2)c1 was 19.93%.
Result for CN(CC(=O)N1CCc2[nH]c3ccc(F)cc3c2C1)CC1OCCO1 was 15.35%.
Result for Cc1cc(NC(=O)NCC(C)O)n(C)n1 (configuration not stated) was -0.1865%.
Result for CCN(CC)Cc1ccc(C(=O)NC2CCc3cc(F)ccc32)o1 (configuration not stated) was 22.82%.
Result for [H][C@]12CCN(C(=O)NCc3cccc(F)c3)C[C@@]1([H])OCCN(C)C2 was 31.32%.
Result for CCS(=O)(=O)N1CCCC(c2nc3ccccc3n2C(C)C)C1 (configuration not stated) was 29.69%.
Result for O=C(CN1CCCC(CO)C1)NCCOc1cccc(Cl)c1 (configuration not stated) was 29.94%.
Result for Cc1ccc(C(NCC(=O)N2CCNC(=O)C2)c2ccccc2)cc1 (configuration not stated) was 15.17%.
Result for Cc1oc(C(=O)O)cc1S(=O)(=O)Nc1cc(Br)ccc1Cl was -2.217%.
Result for Cc1nc(C)c(CNC(=O)N2CCc3ccccc3C2CO)s1 (configuration not stated) was 41.03%.
Result for Cn1ccnc1-c1noc(NCc2ccccc2)n1 was 10.05%.
Result for O=C(NCc1cccnc1-n1cccn1)C1CC(=O)N(CC2CC2)C1 (configuration not stated) was -19.31%.
Result for CC1CCCN(C(=O)Nc2cccc(CN3CCOC3=O)c2)C1 (configuration not stated) was 15.73%.
Result for O=C(O)[C@@H]1CN(Cc2cnc(C3CCCCC3)nc2)C[C@H]1C1CC1 was 48.07%.
Result for COc1ccc(CCN2CC(n3nc(C)cc3C)C2)cc1 was 27.62%.
Result for Cc1csc(N2CCN(CC(=O)Nc3c(C)n[nH]c3C)CC2C)n1 (configuration not stated) was -16.41%.
Result for O=C(CN1CCCCCC1)NCc1ccc2[nH]c(=O)[nH]c2c1 was -8.244%.
Result for COC(=O)CC1CCCCN1CC(=O)Nc1ccc(F)cc1Cl (configuration not stated) was -25.06%.
Result for O=C(NCCCN1CCOCC1)c1ccnc(OCc2ccccc2)c1 was 17.08%.
Result for Cc1cccc(-c2noc(CN3CC(n4cccn4)C3)n2)c1 was 14.91%.
Result for Cn1cccc1CNC(=O)N(CCO)C1CCCc2ccccc21 (configuration not stated) was 23.89%.
Result for CSC(C)CCN1CCCn2nc(CNC(=O)C3CCC3)cc2C1 (configuration not stated) was -7.76%.
Result for CS(=O)(=O)NCc1nnc2n1CCN(Cc1nccs1)C2 was 4.846%.
Result for Cc1cccc(-c2nc3cc(S(=O)(=O)N4CCCC4)ccc3n2C)n1 was -36.54%.
Result for CCOCc1ccccc1NC(=O)NC1CCN(c2ncccn2)CC1 was 14.63%.
Result for CC(C)c1nc(C2CCCN(C(=O)CCn3ccnc3)C2)no1 (configuration not stated) was 3.919%.
Result for CCC1CCC(NCCN2CCOCC2)CC1 (configuration not stated) was 45.68%.
Result for CNC(=O)C1(c2cnccn2)CCCN1C(=O)c1ccccn1 (configuration not stated) was 12.04%.
Result for O=C(c1cnc(C2CC2)s1)N1CCCCC1Cn1cccn1 (configuration not stated) was -19.32%.
Result for COc1cccc(N2CCC(CNC(=O)N(C)Cc3ccco3)C2)c1 (configuration not stated) was 35.37%.
Result for c1cc(C2CCCN2CC2CC2)n[nH]1 (configuration not stated) was 31.02%.
Result for Cc1cc(C)n(C2CN(CC(=O)NC3CCS(=O)(=O)C3)C2)n1 (configuration not stated) was 3.352%.
Result for CN(C)Cc1cnc2n1CCN(C(=O)Cc1cccc(F)c1)CC2.O=C(O)C(F)(F)F was 15.77%.
Result for CN(C)[C@@H]1CCN(C(=O)c2ccco2)[C@H]1Cc1cnn(C)c1.O=C(O)C(F)(F)F was 0.209%.
Result for Cc1nc(CCN2CCC(Oc3ccccc3F)CC2)c(C)s1 was -16.18%.
Result for CC(C)Cn1c(=O)nc2n1C(=O)N(c1ccc(F)cc1)C2 was 3.636%.
Result for CS(=O)(=O)N1CCOCC2(CCN(Cc3ccc[nH]3)CC2)C1.O=C(O)C(F)(F)F was 31.52%.
Result for Cc1noc(C2CCCN(C(=O)c3cc(-c4ccccc4)on3)C2)n1 (configuration not stated) was -15.64%.
Result for CCOCCn1c(=O)[nH]c2cc(C(=O)N(C)CCc3cn[nH]c3)ccc21 was 6.877%.
Result for CN(C(=O)Cc1c[nH]c2ccccc12)C1CCN(c2ccccn2)CC1 was 9.642%.
Result for Cc1nc2c(c(N3CCCOCC3)n1)CCN(c1nccs1)CC2 was 7.125%.
Result for CCCn1[nH]c(CNc2ccccc2)nc1=O was 41.33%.
Result for Cc1ccnc(NC(=O)C2CCN(CCCn3ccnc3C)CC2)c1 was -9.191%.
Result for [H][C@]12CCN(c3ccc(Cl)cn3)C[C@]1(COC)CC[C@@H](N1CCOCC1)C2 was 28.34%.
Result for [H][C@@]12CCN(C[C@@H]1CC)[C@@H](CNCc1ccc(OC(F)(F)F)cc1)C2 was 43.95%.
Result for COCCN(C)c1ccc(NCc2ccsc2)nc1 was 29.13%.
Result for c1cnc2c(C3CCN(Cc4ccsc4)CC3)n[nH]c2n1 was -16.22%.

The first 4 entries again:

SMILES	Percent Effect
c1ccc2c(N3CCCCC3)cnnc2c1	14.11%
CC(Cn1cccn1)NC(=O)NCc1ccccn1 (configuration not stated)	-21.26%
COCCCN(CCOC)C(=O)Nc1ccccc1Br	20.88%
NCCn1nc(C2CCN(C(=O)Cc3ccccc3)C2)c2nccnc21 (configuration not stated)	-4.067%